Data on one molecule can be found in article PMC10314837.

Chains of the proteins cited; added tags and fusions are not shown.
UniProt P50748: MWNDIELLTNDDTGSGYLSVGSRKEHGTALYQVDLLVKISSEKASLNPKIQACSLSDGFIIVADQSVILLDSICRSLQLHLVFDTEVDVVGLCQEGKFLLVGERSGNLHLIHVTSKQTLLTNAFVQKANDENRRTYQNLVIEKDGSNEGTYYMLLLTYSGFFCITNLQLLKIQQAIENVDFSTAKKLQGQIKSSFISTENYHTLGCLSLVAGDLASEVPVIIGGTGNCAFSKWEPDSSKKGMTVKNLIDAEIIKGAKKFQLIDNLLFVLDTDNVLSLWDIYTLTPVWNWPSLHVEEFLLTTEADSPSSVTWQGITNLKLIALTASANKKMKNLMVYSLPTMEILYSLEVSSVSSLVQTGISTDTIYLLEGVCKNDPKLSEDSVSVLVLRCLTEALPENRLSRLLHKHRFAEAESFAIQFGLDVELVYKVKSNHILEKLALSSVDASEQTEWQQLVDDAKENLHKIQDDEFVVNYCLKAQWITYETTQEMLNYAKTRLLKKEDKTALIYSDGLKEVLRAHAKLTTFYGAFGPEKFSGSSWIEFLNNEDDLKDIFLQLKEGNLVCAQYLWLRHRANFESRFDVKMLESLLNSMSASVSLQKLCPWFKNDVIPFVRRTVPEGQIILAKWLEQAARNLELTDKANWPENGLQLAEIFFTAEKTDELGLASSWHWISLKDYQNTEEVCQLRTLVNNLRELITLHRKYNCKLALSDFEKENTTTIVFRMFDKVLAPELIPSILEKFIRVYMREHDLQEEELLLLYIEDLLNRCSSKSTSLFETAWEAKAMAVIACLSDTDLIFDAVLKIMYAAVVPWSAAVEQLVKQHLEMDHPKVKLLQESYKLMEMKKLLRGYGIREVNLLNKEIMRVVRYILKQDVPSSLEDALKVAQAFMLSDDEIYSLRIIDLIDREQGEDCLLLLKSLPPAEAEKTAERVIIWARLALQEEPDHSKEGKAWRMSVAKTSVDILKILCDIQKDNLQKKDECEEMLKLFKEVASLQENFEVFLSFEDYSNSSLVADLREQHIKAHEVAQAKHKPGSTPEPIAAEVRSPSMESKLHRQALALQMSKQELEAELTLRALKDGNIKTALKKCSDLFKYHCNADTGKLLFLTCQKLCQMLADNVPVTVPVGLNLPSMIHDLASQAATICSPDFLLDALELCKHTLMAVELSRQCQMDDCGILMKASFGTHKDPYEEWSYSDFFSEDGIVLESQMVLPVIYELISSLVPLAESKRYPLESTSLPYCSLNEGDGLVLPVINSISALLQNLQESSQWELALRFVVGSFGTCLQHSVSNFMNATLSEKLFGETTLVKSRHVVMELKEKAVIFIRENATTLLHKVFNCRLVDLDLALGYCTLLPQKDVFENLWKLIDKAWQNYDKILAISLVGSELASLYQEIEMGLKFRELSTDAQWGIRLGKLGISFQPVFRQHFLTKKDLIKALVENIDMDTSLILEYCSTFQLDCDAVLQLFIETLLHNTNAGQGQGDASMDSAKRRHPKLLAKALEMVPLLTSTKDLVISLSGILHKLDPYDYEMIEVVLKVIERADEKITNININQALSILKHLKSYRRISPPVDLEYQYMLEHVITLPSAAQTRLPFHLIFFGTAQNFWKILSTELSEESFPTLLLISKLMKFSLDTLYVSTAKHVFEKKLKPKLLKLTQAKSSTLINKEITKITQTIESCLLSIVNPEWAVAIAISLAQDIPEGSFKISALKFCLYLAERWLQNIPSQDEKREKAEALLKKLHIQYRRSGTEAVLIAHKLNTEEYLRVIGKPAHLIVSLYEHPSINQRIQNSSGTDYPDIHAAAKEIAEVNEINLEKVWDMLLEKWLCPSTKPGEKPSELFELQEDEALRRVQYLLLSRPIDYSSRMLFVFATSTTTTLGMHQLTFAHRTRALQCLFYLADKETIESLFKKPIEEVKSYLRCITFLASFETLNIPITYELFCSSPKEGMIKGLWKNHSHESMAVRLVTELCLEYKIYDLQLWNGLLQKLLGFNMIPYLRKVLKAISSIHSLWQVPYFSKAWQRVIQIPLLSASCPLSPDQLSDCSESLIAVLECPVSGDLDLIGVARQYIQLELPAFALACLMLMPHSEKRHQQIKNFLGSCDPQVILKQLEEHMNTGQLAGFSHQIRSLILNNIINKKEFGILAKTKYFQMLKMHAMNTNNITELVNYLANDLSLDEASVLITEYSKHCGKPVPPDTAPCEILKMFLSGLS

The target of the experiment is Kinetochore-associated protein 1 (human (endogenous in pancreatic cancer samples)) (UniProt P50748). The experiment can be described thus: co-IP; total protein extract in 50 mmol/L Tris-HCl pH 7.4, 150 mmol/L NaCl, 0.1% SDS, 1% NP, 0.5% sodium deoxycholate, protease inhibitor; specific primary antibody or normal control IgG overnight at 4 C, agarose beads, PBS washes, western blot. In general terms: Immunoblotting shows a protein as a band on a membrane.

No constants are given. Whether binding was seen depends on the method and setting. Binding seen in cells or lysates may run through a third protein. Some binding calls cover weakened binding; strength is not graded here.

B1: cell division cycle associated 8 (protein, UniProt Q53HL2 1-280)
chain: MAPRKGSSRVAKTNSLRRRKLASFLKDFDREVEIRIKQIESDRQNLLKEVDNLYNIEILRLPKALREMNWLDYFALGGNKQALEEAATADLDITEINKLTAEAIQTPLKSAKTRKVIQVDEMIVEEEEEEENERKNLQTARVKRCPPSKKRTQSIQGKGKGKRSSRANTVTPAVGRLEVSMVKPTPGLTPRFDSRVFKTPGLRTPAAGERIYNISGNGSPLADSKEIFLTVPVGGGESLRLLASDLQRHSIAQLDPEALGNIKKLSNRLAQICSSIRTHK
For the molecule B1, the binding entry is reported as “binds”.
